This is an account of results in publication PMC6376957.

Chains of the proteins cited; added tags and fusions are not shown.
UniProt P05804: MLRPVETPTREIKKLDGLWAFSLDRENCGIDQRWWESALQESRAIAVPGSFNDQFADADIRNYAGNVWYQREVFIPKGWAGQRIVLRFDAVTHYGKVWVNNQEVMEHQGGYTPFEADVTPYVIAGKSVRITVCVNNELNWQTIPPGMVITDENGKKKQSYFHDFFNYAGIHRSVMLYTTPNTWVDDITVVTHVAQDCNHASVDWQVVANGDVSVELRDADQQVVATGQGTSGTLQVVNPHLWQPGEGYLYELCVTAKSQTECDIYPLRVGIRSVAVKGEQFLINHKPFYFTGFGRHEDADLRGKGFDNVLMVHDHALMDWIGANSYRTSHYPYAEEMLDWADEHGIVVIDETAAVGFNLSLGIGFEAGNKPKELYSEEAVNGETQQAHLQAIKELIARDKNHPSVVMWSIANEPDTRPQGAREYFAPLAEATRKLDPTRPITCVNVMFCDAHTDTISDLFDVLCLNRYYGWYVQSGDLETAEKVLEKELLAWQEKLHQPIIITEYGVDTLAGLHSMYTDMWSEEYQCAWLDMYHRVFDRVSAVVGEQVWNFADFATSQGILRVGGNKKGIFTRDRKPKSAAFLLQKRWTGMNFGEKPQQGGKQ

First the molecules themselves.
B1: GF14c fused to cYFP (BiFC) (protein, UniProt Q6ZKC0 1-256)
chain: MSREENVYMAKLAEQAERYEEMVEYMEKVAKTVDVEELTVEERNLLSVAYKNVIGARRASWRIVSSIEQKEEGRGNEEHVTLIKEYRGKIEAELSKICDGILKLLDSHLVPSSTAAESKVFYLKMKGDYHRYLAEFKTGAERKEAAESTMVAYKAAQDIALADLAPTHPIRLGLALNFSVFYYEILNSPDKACNLAKQAFDEAISELDTLGEESYKDSTLIMQLLRDNLTLWTSDLTEDGGDEVKEASKGDACEGQ
B2: GF14a (two-hybrid prey in pGADT7) (protein, UniProt Q84J55 1-264)
chain: MAAAAGGGTREEMVYMAKLAEQAERYEEMVEFMEKVVTAAAAGGGGELTVEERNLLSVAYKNVIGARRASWRIVSSIEQKEEGRGAAGHAAAARSYRARVEAELSNICAGILRLLDERLVPAAAAVDAKVFYLKMKGDYHRYLAEFKTGAERKDAADATLAAYQAAQDIAMKELSPTHPIRLGLALNFSVFYYEILNSPDRACTLAKQAFDEAISELDTLGEESYKDSTLIMQLLRDNLTLWTSDMQDDGGDEMRDATKPEDEH
B3: GF14d (two-hybrid prey in pGADT7) (protein, UniProt Q2R2W2 1-265)
chain: MSPAEPTREESVYKAKLAEQAERYEEMVEYMERVARAAGGASGGEELTVEERNLLSVAYKNVIGARRASWRIISSIEQKEEGRGNDAHAATIRSYRGKIEAELARICDGILALLDSHLVPSAGAAESKVFYLKMKGDYHRYLAEFKSGDERKQAAESTMNAYKAAQDIALADLAPTHPIRLGLALNFSVFYYEILNSPDRACNLAKQAFDEAISELDSLGEESYKDSTLIMQLLRDNLTLWTSDANDDGGDEIKEAAAPKEPGDQ
B4: GF14c (two-hybrid prey in pGADT7) (protein, UniProt Q6ZKC0 1-256)
chain: MSREENVYMAKLAEQAERYEEMVEYMEKVAKTVDVEELTVEERNLLSVAYKNVIGARRASWRIVSSIEQKEEGRGNEEHVTLIKEYRGKIEAELSKICDGILKLLDSHLVPSSTAAESKVFYLKMKGDYHRYLAEFKTGAERKEAAESTMVAYKAAQDIALADLAPTHPIRLGLALNFSVFYYEILNSPDKACNLAKQAFDEAISELDTLGEESYKDSTLIMQLLRDNLTLWTSDLTEDGGDEVKEASKGDACEGQ

These are yes or no findings as the source states them, for the method shown. A result given as binding can be weak or reduced; the word gives no strength. For some of these results: Binding seen in cells or lysates may run through a third protein. For some of these results: Tags and fused reporters may be left off the sequences shown.

The first experiment deals with OsFTL10 fused to nYFP (BiFC) (rice (Oryza sativa)). The experiment is described as follows: split reporter; BiFC in rice protoplasts: GF14c in p35S::cYFP, OsFTL10 in p35S::nYFP; live cell imaging by confocal microscope; GUS in place of either partner as negative control.
Take “GUS fused to cYFP (BiFC negative control, in place of GF14c) (from UniProt P05804 1-603) (enzyme)”: the binding result was “no binding”.

Consider B1, for which the binding entry is given as “binds”.

For another experiment, the target named is OsFTL10 (two-hybrid bait in pGBKT7) (rice (Oryza sativa)). The experiment is described as follows: two-hybrid; Matchmaker Gold Yeast Two-Hybrid System; OsFTL10 in pGBKT7 as bait, 14-3-3s in pGADT7 as prey.
In the case of “GF14e (two-hybrid prey in pGADT7) (from UniProt Q6EUP4 1-262)”, the binding result was “binds”.

Consider “GF14b (two-hybrid prey in pGADT7) (from UniProt Q7XTE8 1-262)”, for which the binding entry was “binds”.

For B2, the binding result is recorded as “binds”.

Regarding B3, the binding result is reported as “binds”.

With B4, the binding result is reported as “binds”.
